# In the supplement of paper PMC8728848:
# The list shows a part of the results.
# B1: TIM-1 (Mus musculus), AAL35774 (protein)
# chain: MNQIQVFISGLILLLPGAVDSYVEVKGVVGHPVTLPCTYSTYRGITTTCWGRGQCPSSACQNTLIWTNGHRVTYQKSSRYNLKGHISEGDVSLTIENSVESDSGLYCCRVEIPGWFNDQKVTFSLQVKPEIPTRPPTRPTTTRPTATGRPTTISTRSTHVPTSIRVSTSTPPTSTHTWTHKPEPTTFCPHETTAEVTGIPSHTPTDWNGTVTSSGDTWSNHTEAIPPGKPQKNPTKGFYVGICIAALLLLLLVSTVAITRYILMKRKSASLSVVAFRVSKIEALQNAAVVHSRAEDNIYIVEDRP
# Tests used:
# Assay in all cases: glycan array binding signal (z-score within array); higher = stronger binding
# Conditions in all cases: glycan notation: IUPAC condensed, linker removed
# [1] = biological target: Neu5Ac(a2-3)Gal
# Procedure, shortened: (§1)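 Glycan array data came from 3228 arrays in the Consortium for Functional Glycomics database, and only arrays with an available protein sequence were kept. Glycan names were put into IUPAC-condensed notation, and columns mapping to the same glycan were averaged. The binding signal is a within-array Z-score, averaged across arrays of one protein sequence run at different concentrations or buffers and across linkers. A negative Z-score can be read as non-binding.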
# [2] = biological target: Neu5Ac(a2-3)Gal(b1-3)GalNAc
# Procedure, shortened: as §1
# [3] = biological target: Neu5Ac(a2-3)Gal(b1-3)GalNAc(b1-3)Gal(a1-4)Gal(b1-4)Glc
# Procedure, shortened: as §1
# [4] = biological target: Neu5Ac(a2-3)Gal(b1-3)GalNAc(b1-4)[Neu5Ac(a2-3)]Gal(b1-4)Glc
# Procedure, shortened: as §1
# [5] = biological target: Neu5Ac(a2-3)Gal(b1-3)GalNAc6S
# Procedure, shortened: as §1
# [6] = biological target: Neu5Ac(a2-3)Gal(b1-3)GlcNAc
# Procedure, shortened: as §1
# [7] = biological target: Neu5Ac(a2-3)Gal(b1-3)GlcNAc(b1-3)Gal(b1-3)GlcNAc
# Procedure, shortened: as §1
# [8] = biological target: Neu5Ac(a2-3)Gal(b1-3)GlcNAc(b1-3)Gal(b1-4)GlcNAc
# Procedure, shortened: as §1
# [9] = biological target: Neu5Ac(a2-3)Gal(b1-3)GlcNAc6S
# Procedure, shortened: as §1
# [10] = biological target: Neu5Ac(a2-3)Gal(b1-3)[Fuc(a1-4)]GlcNAc
# Procedure, shortened: as §1
# [11] = biological target: Neu5Ac(a2-3)Gal(b1-3)[Fuc(a1-4)]GlcNAc(b1-3)Gal(b1-4)[Fuc(a1-3)]GlcNAc
# Procedure, shortened: as §1
# [12] = biological target: Neu5Ac(a2-3)Gal(b1-3)[Neu5Ac(a2-3)Gal(b1-4)]GlcNAc
# Procedure, shortened: as §1
# [13] = biological target: Neu5Ac(a2-3)Gal(b1-3)[Neu5Ac(a2-6)]GalNAc
# Procedure, shortened: as §1
# [14] = biological target: Neu5Ac(a2-3)Gal(b1-4)Glc
# Procedure, shortened: as §1
# [15] = biological target: Neu5Ac(a2-3)Gal(b1-4)GlcNAc
# Procedure, shortened: as §1
# [16] = biological target: Neu5Ac(a2-3)Gal(b1-4)GlcNAc(b1-3)Gal(b1-3)GlcNAc
# Procedure, shortened: as §1
# [17] = biological target: Neu5Ac(a2-3)Gal(b1-4)GlcNAc(b1-3)Gal(b1-4)GlcNAc
# Procedure, shortened: as §1
# [18] = biological target: Neu5Ac(a2-3)Gal(b1-4)GlcNAc(b1-3)Gal(b1-4)GlcNAc(b1-3)Gal(b1-4)GlcNAc
# Procedure, shortened: as §1
# [19] = biological target: Neu5Ac(a2-3)Gal(b1-4)GlcNAc(b1-3)Gal(b1-4)[Fuc(a1-3)]GlcNAc
# Procedure, shortened: as §1
# [20] = biological target: Neu5Ac(a2-3)Gal(b1-4)GlcNAc(b1-6)[Gal(b1-3)]GalNAc
# Procedure, shortened: as §1
# [21] = biological target: Neu5Ac(a2-3)Gal(b1-4)GlcNAc6S
# Procedure, shortened: as §1
# [22] = biological target: Neu5Ac(a2-3)Gal(b1-4)[Fuc(a1-3)]GlcNAc
# Procedure, shortened: as §1
# [23] = biological target: Neu5Ac(a2-3)Gal(b1-4)[Fuc(a1-3)]GlcNAc(b1-3)Gal
# Procedure, shortened: as §1
# [24] = biological target: Neu5Ac(a2-3)Gal(b1-4)[Fuc(a1-3)]GlcNAc(b1-3)Gal(b1-4)GlcNAc
# Procedure, shortened: as §1
# [25] = biological target: Neu5Ac(a2-3)Gal(b1-4)[Fuc(a1-3)]GlcNAc(b1-3)Gal(b1-4)[Fuc(a1-3)]GlcNAc(b1-3)Gal(b1-4)[Fuc(a1-3)]GlcNAc
# Procedure, shortened: as §1
# [26] = biological target: Neu5Ac(a2-3)Gal(b1-4)[Fuc(a1-3)]GlcNAc6S
# Procedure, shortened: as §1
# [27] = biological target: Neu5Ac(a2-3)Gal6S(b1-4)GlcNAc
# Procedure, shortened: as §1
# [28] = biological target: Neu5Ac(a2-3)Gal6S(b1-4)[Fuc(a1-3)]GlcNAc
# Procedure, shortened: as §1
# [29] = biological target: Neu5Ac(a2-3)GalNAc
# Procedure, shortened: as §1
# [30] = biological target: Neu5Ac(a2-3)GalNAc(b1-4)GlcNAc
# Procedure, shortened: as §1
# [31] = biological target: Neu5Ac(a2-3)[GalNAc(b1-4)]Gal(b1-4)Glc
# Procedure, shortened: as §1
# [32] = biological target: Neu5Ac(a2-3)[GalNAc(b1-4)]Gal(b1-4)GlcNAc
# Procedure, shortened: as §1
# [33] = biological target: Neu5Ac(a2-3)[Neu5Ac(a2-6)]GalNAc
# Procedure, shortened: as §1
# [34] = biological target: Neu5Ac(a2-6)Gal
# Procedure, shortened: as §1
# [35] = biological target: Neu5Ac(a2-6)Gal(b1-4)Glc
# Procedure, shortened: as §1
# [36] = biological target: Neu5Ac(a2-6)Gal(b1-4)GlcNAc
# Procedure, shortened: as §1
# [37] = biological target: Neu5Ac(a2-6)Gal(b1-4)GlcNAc(b1-2)Man(a1-3)[Neu5Ac(a2-6)Gal(b1-4)GlcNAc(b1-2)Man(a1-6)]Man(b1-4)GlcNAc(b1-4)GlcNAc
# Procedure, shortened: as §1
# [38] = biological target: Neu5Ac(a2-6)Gal(b1-4)GlcNAc(b1-3)Gal(b1-4)GlcNAc
# Procedure, shortened: as §1
binder,measurement,setting,value
B1,glycan array binding signal (z-score),[1],-0.453
same,glycan array binding signal (z-score),[2],-0.392
same,glycan array binding signal (z-score),[3],-0.803
same,glycan array binding signal (z-score),[4],-0.718
same,glycan array binding signal (z-score),[5],0.148
same,glycan array binding signal (z-score),[6],-0.118
same,glycan array binding signal (z-score),[7],0.04
same,glycan array binding signal (z-score),[8],-0.296
same,glycan array binding signal (z-score),[9],-0.232
same,glycan array binding signal (z-score),[10],0.05
same,glycan array binding signal (z-score),[11],-0.377
same,glycan array binding signal (z-score),[12],-0.044
same,glycan array binding signal (z-score),[13],-0.241
same,glycan array binding signal (z-score),[14],-0.275
same,glycan array binding signal (z-score),[15],-0.181
same,glycan array binding signal (z-score),[16],-0.782
same,glycan array binding signal (z-score),[17],-0.261
same,glycan array binding signal (z-score),[18],-0.569
same,glycan array binding signal (z-score),[19],-0.422
same,glycan array binding signal (z-score),[20],-0.523
same,glycan array binding signal (z-score),[21],0.278
same,glycan array binding signal (z-score),[22],-0.451
same,glycan array binding signal (z-score),[23],-0.414
same,glycan array binding signal (z-score),[24],0.09
same,glycan array binding signal (z-score),[25],0.096
same,glycan array binding signal (z-score),[26],-0.546
same,glycan array binding signal (z-score),[27],-0.18
same,glycan array binding signal (z-score),[28],-0.631
same,glycan array binding signal (z-score),[29],-0.457
same,glycan array binding signal (z-score),[30],-0.411
same,glycan array binding signal (z-score),[31],-0.433
same,glycan array binding signal (z-score),[32],-0.454
same,glycan array binding signal (z-score),[33],0.386
same,glycan array binding signal (z-score),[34],-0.601
same,glycan array binding signal (z-score),[35],0.098
same,glycan array binding signal (z-score),[36],-0.391
same,glycan array binding signal (z-score),[37],-0.984
same,glycan array binding signal (z-score),[38],-0.107

# 2 records drawn at random from the list so far:
binder,measurement,setting,value
B1,glycan array binding signal (z-score),[23],-0.414
same,glycan array binding signal (z-score),[34],-0.601
